The text below walks through data of paper PMC3875382.

Sequences of proteins named here, by UniProt entry; tags and fusion partners are left off.
UniProt Q8S307: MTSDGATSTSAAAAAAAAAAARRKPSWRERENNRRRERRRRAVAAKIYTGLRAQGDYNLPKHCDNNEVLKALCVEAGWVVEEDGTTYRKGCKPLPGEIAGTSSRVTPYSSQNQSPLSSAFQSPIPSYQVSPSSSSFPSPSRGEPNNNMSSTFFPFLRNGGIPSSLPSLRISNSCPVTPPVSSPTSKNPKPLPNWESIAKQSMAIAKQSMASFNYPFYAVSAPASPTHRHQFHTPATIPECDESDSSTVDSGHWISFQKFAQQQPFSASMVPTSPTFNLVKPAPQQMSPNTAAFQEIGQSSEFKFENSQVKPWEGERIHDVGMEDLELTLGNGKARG
UniProt Q9C519: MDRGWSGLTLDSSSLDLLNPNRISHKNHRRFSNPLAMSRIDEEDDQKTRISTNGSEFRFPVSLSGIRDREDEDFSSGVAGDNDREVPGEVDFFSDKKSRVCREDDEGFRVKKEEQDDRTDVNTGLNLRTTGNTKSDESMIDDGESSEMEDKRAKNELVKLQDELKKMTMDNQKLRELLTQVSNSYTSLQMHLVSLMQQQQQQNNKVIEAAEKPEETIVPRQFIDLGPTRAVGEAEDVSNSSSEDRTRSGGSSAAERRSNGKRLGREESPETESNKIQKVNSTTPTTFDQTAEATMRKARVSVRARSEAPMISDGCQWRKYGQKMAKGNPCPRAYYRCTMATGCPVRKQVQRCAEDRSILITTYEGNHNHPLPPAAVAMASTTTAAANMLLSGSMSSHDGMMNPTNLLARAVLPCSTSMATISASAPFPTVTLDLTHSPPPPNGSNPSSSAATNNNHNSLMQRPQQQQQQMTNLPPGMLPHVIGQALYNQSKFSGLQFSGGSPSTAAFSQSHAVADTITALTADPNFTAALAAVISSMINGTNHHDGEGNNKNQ

Assay [1] concerns the target BZR1-GFP (expressed in N. benthamiana from the pUb-cYFP-Dest vector) (Arabidopsis) (UniProt Q8S307). In words: co-IP; transient co-expression in N. benthamiana leaves; 1 μM epiBL for 1 hr before extraction; BZR1-GFP immunoprecipitated with an anti-GFP antibody (μMACS GFP Isolation Kit); blots with anti-HA or anti-GFP.
The target of assay [2] is BZR1-GFP (expressed in Arabidopsis protoplasts; construct of Ryu et al., 2007) (Arabidopsis) (UniProt Q8S307). In words: co-IP; transient co-expression in Arabidopsis mesophyll protoplasts, 16 hr after transfection; 1 μM epiBL for 1 hr before extraction; BZR1-GFP immunoprecipitated with an anti-GFP antibody; blots with anti-HA or anti-GFP.

No constants are given. Whether binding was seen depends on the method and setting. Binding seen in cells or lysates may run through a third protein. Some binding calls cover weakened binding; strength is not graded here. Tags and fused reporters may be left off the sequences shown.

In the case of “WRKY6-HA (expressed in N. benthamiana from the pAM-PAT vector) (from UniProt Q9C519 1-553)”, the binding entry in assay [1] is listed as “no binding”.

B1: WRKY40-HA (expressed in N. benthamiana from the pAM-PAT vector) (protein, UniProt Q9SAH7 1-302)
chain: MDQYSSSLVDTSLDLTIGVTRMRVEEDPPTSALVEELNRVSAENKKLSEMLTLMCDNYNVLRKQLMEYVNKSNITERDQISPPKKRKSPAREDAFSCAVIGGVSESSSTDQDEYLCKKQREETVVKEKVSRVYYKTEASDTTLVVKDGYQWRKYGQKVTRDNPSPRAYFKCACAPSCSVKKKVQRSVEDQSVLVATYEGEHNHPMPSQIDSNNGLNRHISHGGSASTPVAANRRSSLTVPVTTVDMIESKKVTSPTSRIDFPQVQKLLVEQMASSLTKDPNFTAALAAAVTGKLYQQNHTEK
Consider B1, for which, in assay [1], the binding result is on record as “binds”.

B2: WRKY40-HA (expressed in Arabidopsis protoplasts from the pGWB414 vector) (protein, UniProt Q9SAH7 1-302)
chain: MDQYSSSLVDTSLDLTIGVTRMRVEEDPPTSALVEELNRVSAENKKLSEMLTLMCDNYNVLRKQLMEYVNKSNITERDQISPPKKRKSPAREDAFSCAVIGGVSESSSTDQDEYLCKKQREETVVKEKVSRVYYKTEASDTTLVVKDGYQWRKYGQKVTRDNPSPRAYFKCACAPSCSVKKKVQRSVEDQSVLVATYEGEHNHPMPSQIDSNNGLNRHISHGGSASTPVAANRRSSLTVPVTTVDMIESKKVTSPTSRIDFPQVQKLLVEQMASSLTKDPNFTAALAAAVTGKLYQQNHTEK
Take B2: in assay [2], the binding result is “binds”.
